Results taken from article PMC5385498.
Results are given in words; binding and its absence hold for the method and conditions named. In cells and extracts the contact can be indirect. Some entries that bind do so weakly or less than the wild type.

Amino acid sequences for entries named in this document (tags omitted).
UniProt Q8TC59: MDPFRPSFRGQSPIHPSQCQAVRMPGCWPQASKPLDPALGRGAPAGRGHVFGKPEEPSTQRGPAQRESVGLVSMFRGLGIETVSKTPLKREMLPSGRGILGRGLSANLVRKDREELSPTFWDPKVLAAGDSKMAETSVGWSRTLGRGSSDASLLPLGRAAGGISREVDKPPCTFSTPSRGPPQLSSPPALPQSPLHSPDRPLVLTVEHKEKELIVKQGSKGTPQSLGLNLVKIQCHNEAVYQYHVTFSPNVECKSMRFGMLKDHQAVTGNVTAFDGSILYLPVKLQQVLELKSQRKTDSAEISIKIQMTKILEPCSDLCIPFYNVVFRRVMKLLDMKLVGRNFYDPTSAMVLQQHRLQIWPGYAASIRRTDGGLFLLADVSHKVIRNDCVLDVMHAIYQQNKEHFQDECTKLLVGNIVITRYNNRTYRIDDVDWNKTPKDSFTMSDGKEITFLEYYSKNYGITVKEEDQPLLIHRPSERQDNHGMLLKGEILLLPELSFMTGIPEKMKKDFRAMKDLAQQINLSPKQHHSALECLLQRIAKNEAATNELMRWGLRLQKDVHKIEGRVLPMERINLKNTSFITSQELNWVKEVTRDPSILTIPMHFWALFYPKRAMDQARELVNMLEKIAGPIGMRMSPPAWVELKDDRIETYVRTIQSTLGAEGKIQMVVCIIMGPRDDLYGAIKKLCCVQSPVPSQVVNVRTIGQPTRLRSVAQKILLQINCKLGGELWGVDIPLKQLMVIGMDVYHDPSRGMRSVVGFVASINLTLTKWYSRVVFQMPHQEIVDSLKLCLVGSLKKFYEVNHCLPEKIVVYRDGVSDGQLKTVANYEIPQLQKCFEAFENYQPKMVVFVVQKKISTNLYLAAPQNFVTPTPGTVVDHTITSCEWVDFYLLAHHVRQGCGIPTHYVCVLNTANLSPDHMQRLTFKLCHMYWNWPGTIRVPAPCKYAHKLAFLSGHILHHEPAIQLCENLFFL

Legend:
[1] = biological target: TBCB (Tubulin cofactor B) in cell lysates (UniProt Q99426); experiment: co-IP; two-step immunoprecipitation
[2] = biological target: TBCB (Tubulin cofactor B) in cell lysates (UniProt Q99426); experiment: co-IP; cell lysates (with or without knock-down or overexpression of HILI or HSP90); immunoprecipitated with antibody and protein A + G agarose beads, Western blot
[3] = biological target: TBCB (Tubulin cofactor B), endogenous (human (endogenous in HeLa)) (UniProt Q99426); experiment: co-IP; endogenous proteins of HeLa cells; lysate immunoprecipitated with antibody and protein A + G agarose beads, Western blot
[4] = biological target: TBCB (Tubulin cofactor B), in vitro translated (UniProt Q99426); experiment: co-IP; in vitro translated proteins (TNT Quick Coupled system), 20 ul of each mixed in 200 ul binding buffer (20 mM Tris-HCl pH 7.5, 150 mM NaCl, 1 mM dithiothreitol, 0.1% Tween 20, protease inhibitors), 4 °C, 3 h; then coimmunoprecipitation and Western blot
[5] = biological target: T1, TBCB (Tubulin cofactor B) in cell lysates, Q99426; experiment: co-IP; cell lysates (with or without knock-down or overexpression of HILI or HSP90); immunoprecipitated with antibody and protein A + G agarose beads, Western blot; settings: remark: other sources report otherwise
T1 chain: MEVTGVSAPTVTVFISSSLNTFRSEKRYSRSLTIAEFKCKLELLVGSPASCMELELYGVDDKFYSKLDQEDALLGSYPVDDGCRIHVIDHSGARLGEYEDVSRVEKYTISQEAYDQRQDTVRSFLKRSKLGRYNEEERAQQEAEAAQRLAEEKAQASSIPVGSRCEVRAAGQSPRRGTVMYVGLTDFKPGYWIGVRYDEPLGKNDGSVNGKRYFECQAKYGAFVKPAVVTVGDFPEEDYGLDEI

HILI (human PIWIL2) in cell lysates (from UniProt Q8TC59 1-973)
binding [1]: binds | binding [2]: binds

HILI (human PIWIL2), endogenous (from UniProt Q8TC59 1-973)
binding [3]: binds

HILI (human PIWIL2), in vitro translated (from UniProt Q8TC59 1-973)
binding [4]: binds

B1: Gigaxonin in cell lysates, Q9H2C0 1-597 (protein)
chain: MAEGSAVSDPQHAARLLRALSSFREESRFCDAHLVLDGEEIPVQKNILAAASPYIRTKLNYNPPKDDGSTYKIELEGISVMVMREILDYIFSGQIRLNEDTIQDVVQAADLLLLTDLKTLCCEFLEGCIAAENCIGIRDFALHYCLHHVHYLATEYLETHFRDVSSTEEFLELSPQKLKEVISLEKLNVGNERYVFEAVIRWIAHDTEIRKVHMKDVMSALWVSGLDSSYLREQMLNEPLVREIVKECSNIPLSQPQQGEAMLANFKPRGYSECIVTVGGEERVSRKPTAAMRCMCPLYDPNRQLWIELAPLSMPRINHGVLSAEGFLFVFGGQDENKQTLSSGEKYDPDANTWTALPPMNEARHNFGIVEIDGMLYILGGEDGEKELISMECYDIYSKTWTKQPDLTMVRKIGCYAAMKKKIYAMGGGSYGKLFESVECYDPRTQQWTAICPLKERRFGAVACGVAMELYVFGGVRSREDAQGSEMVTCKSEFYHDEFKRWIYLNDQNLCIPASSSFVYGAVPIGASIYVIGDLDTGTNYDYVREFKRSTGTWHHTKPLLPSDLRRTGCAALRIANCKLFRLQLQQGLFRIRVHSP
binding [5]: binds
